# Assay results: publication doi:10.1101/2021.06.15.448540
# Results are given in words; binding and its absence hold for the method and conditions named. Some results given as binding are weak or reduced against the parent protein; the word gives no strength. For part of these data: Sequences can lack the tags named with a protein.
# T1: FhuCB subcomplex (wild type; membrane subunit FhuB and ATPase FhuC) (Escherichia coli) (UniProt P07821+P06972)
# T1 sequence (chain, His-tag labeled with the red-tris-NTA 2nd generation dye (in the MST)) 1: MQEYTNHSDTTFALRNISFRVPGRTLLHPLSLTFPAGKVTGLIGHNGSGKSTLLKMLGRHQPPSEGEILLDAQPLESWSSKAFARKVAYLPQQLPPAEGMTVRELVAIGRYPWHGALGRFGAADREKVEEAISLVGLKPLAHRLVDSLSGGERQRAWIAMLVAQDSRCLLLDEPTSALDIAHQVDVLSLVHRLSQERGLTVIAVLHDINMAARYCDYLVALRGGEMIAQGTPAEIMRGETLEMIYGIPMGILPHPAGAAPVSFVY
# T1 sequence (chain, His-tag labeled with the red-tris-NTA 2nd generation dye (in the MST)) 2: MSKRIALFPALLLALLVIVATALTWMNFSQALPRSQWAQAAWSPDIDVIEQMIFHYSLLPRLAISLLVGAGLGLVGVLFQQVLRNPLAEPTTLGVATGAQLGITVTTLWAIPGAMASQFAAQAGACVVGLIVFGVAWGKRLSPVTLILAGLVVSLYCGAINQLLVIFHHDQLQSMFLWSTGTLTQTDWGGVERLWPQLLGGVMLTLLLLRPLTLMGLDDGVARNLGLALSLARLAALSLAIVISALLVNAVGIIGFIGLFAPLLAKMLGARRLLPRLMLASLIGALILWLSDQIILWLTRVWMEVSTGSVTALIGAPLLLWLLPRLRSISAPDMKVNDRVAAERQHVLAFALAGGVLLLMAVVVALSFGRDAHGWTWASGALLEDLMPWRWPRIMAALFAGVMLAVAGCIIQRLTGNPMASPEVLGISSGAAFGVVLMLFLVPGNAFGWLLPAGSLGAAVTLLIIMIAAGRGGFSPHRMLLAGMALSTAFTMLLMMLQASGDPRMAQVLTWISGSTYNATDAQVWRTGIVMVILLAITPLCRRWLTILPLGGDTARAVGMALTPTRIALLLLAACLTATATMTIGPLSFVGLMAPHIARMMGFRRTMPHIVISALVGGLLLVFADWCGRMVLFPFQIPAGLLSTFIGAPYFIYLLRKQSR
# T2: FhuB (membrane subunit, co-expressed with FhuC) (Escherichia coli) (UniProt P06972)
# T2 sequence: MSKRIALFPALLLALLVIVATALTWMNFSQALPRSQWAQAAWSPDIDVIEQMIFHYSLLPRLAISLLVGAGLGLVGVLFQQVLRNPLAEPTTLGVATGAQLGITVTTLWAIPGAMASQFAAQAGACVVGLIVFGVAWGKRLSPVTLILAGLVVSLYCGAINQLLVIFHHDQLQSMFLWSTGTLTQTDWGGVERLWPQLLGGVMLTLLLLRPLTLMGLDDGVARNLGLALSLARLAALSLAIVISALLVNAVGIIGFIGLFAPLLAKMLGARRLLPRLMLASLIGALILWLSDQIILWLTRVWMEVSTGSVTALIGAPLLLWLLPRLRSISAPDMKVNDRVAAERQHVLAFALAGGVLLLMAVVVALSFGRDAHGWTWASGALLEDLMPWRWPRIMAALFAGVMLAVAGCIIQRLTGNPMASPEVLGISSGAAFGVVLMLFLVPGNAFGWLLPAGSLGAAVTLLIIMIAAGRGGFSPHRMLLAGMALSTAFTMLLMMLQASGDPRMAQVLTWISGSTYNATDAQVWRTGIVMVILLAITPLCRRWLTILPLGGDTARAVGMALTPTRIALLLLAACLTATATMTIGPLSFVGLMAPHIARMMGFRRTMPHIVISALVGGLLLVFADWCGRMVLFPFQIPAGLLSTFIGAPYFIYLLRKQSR
# T3: FhuC (ATPase subunit, His-tagged, co-expressed with FhuB) (Escherichia coli) (UniProt P07821)
# T3 sequence: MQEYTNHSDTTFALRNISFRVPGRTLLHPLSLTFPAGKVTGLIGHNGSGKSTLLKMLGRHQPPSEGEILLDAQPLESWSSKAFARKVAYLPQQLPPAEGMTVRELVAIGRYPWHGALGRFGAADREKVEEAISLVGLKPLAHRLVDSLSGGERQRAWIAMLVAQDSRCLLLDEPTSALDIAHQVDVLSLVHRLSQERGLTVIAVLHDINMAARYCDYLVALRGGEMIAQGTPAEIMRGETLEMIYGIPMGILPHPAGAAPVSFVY
# Legend:
# [1] = target: T1, FhuCB subcomplex (wild type; membrane subunit FhuB and ATPase FhuC) (Escherichia coli); test: SEC
# [2] = target: T2, FhuB (membrane subunit, co-expressed with FhuC) (Escherichia coli); test: cryo-EM structure
# [3] = target: T1, FhuCB subcomplex (wild type; membrane subunit FhuB and ATPase FhuC) (Escherichia coli); test: cryo-EM structure
# [4] = target: T3, FhuC (ATPase subunit, His-tagged, co-expressed with FhuB) (Escherichia coli); test: SEC
# [5] = target: T3, FhuC (ATPase subunit, His-tagged, co-expressed with FhuB) (Escherichia coli); test: cryo-EM structure
binding [1],binding [2],binding [3],binding [4],binding [5],Binder
binds,binds,binds,–,–,"FhuD (co-expressed from the whole FhuCDB operon, in the purified FhuCDB complex) (protein, UniProt P07822 31-296) AAIDPNRIVALEWLPVELLLALGIVPYGVADTINYRLWVSEPPLPDSVIDVGLRTEPNLELLTEMKPSFMVWSAGYGPSPEMLARIAPGRGFNFSDGKQPLAMARKSLTEMADLLNLQSAAETHLAQYEDFIRSMKPRFVKRGARPLLLTTLIDPRHMLVFGPNSLFQEILDEYGIPNAWQGETNFWGSTAVSIDRLAAYKDVDVLCFDHDNSKDMDALMATPLWQAMPFVRAGRFQRVPAVWFYGATLSAMHFVRVLDNAIGGKA"
–,no binding,–,binds,binds,"FhuB (membrane subunit, co-expressed with FhuC) (protein, UniProt P06972 1-660) MSKRIALFPALLLALLVIVATALTWMNFSQALPRSQWAQAAWSPDIDVIEQMIFHYSLLPRLAISLLVGAGLGLVGVLFQQVLRNPLAEPTTLGVATGAQLGITVTTLWAIPGAMASQFAAQAGACVVGLIVFGVAWGKRLSPVTLILAGLVVSLYCGAINQLLVIFHHDQLQSMFLWSTGTLTQTDWGGVERLWPQLLGGVMLTLLLLRPLTLMGLDDGVARNLGLALSLARLAALSLAIVISALLVNAVGIIGFIGLFAPLLAKMLGARRLLPRLMLASLIGALILWLSDQIILWLTRVWMEVSTGSVTALIGAPLLLWLLPRLRSISAPDMKVNDRVAAERQHVLAFALAGGVLLLMAVVVALSFGRDAHGWTWASGALLEDLMPWRWPRIMAALFAGVMLAVAGCIIQRLTGNPMASPEVLGISSGAAFGVVLMLFLVPGNAFGWLLPAGSLGAAVTLLIIMIAAGRGGFSPHRMLLAGMALSTAFTMLLMMLQASGDPRMAQVLTWISGSTYNATDAQVWRTGIVMVILLAITPLCRRWLTILPLGGDTARAVGMALTPTRIALLLLAACLTATATMTIGPLSFVGLMAPHIARMMGFRRTMPHIVISALVGGLLLVFADWCGRMVLFPFQIPAGLLSTFIGAPYFIYLLRKQSR"
